This note sets out measurements from paper PMC4735655.

The chains behind the UniProt entries cited, without tags or fusion partners.
UniProt O14965: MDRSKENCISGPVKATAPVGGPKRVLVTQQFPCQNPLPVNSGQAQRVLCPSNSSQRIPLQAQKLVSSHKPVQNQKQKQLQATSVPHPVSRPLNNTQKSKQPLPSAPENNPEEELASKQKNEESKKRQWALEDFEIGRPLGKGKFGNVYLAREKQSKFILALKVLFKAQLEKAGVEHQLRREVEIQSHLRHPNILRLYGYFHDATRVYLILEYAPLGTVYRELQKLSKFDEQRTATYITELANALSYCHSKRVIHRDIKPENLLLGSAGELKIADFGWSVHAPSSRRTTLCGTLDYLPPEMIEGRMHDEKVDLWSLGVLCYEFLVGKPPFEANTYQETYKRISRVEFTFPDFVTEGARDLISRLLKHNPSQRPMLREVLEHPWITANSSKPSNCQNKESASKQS

These are yes or no findings as the source states them, for the method shown. Binding seen in cells or lysates may run through a third protein. A result given as binding can be weak or reduced; the word gives no strength.

In this experiment the target is AURKA, ectopically expressed (co-IP of Supplementary Fig. 3h,i,k) (human) (UniProt O14965). Briefly: co-IP; ectopically expressed proteins; RIPA lysate, 1 μg antibody and 200–500 μg lysate.

Turning to “hnRNP K with mutation of S379 site (from UniProt P61978)”, the binding result is recorded as “binds”.
